In paper PMC8468827:
No constants are given. Whether binding was seen depends on the method and setting. Binding seen in cells or lysates may run through a third protein. These calls come from enrichment with a bait or labelling near it, and not all partners need be listed.

Amino acid sequences for entries named in this document (tags omitted).
UniProt Q9VQ93: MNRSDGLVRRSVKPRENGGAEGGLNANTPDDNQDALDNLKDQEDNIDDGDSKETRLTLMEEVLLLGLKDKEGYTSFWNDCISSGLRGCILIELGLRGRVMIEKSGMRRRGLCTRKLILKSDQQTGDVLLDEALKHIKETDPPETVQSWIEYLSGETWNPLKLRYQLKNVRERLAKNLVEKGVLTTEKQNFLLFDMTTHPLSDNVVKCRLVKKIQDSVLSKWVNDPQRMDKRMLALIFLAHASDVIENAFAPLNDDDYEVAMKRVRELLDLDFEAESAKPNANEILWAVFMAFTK

Molecular target: dGOLPH3-mRFP (Drosophila) (UniProt Q9VQ93)
Experiment: affinity purification with mass spectrometry; RFP-trap beads on lysate of 3000 adult testes expressing dGOLPH3-RFP (RFP alone as control); lysis buffer 25 mM Tris-HCl pH 7.4, 150 mM NaCl, 1 mM EDTA, 1% NP-40; washes at 4 °C; nanoLC-MS/MS

| binding | Binder |
| --- | --- |
| binds | δCOP (protein, UniProt Q9W555 1-532) MVLIAAAVCTKNGKVILSRQFVEMTKARIEGLLAAFPKLMTAGKQHTYVETDSVRYVYQPMEKLYMLLITTKASNILEDLETLRLFSKVIPEYSHSLDEKEIVENAFNLIFAFDEIVALGYRESVNLAQIKTFVEMDSHEEKVYQAVRQTQERDARQKMREKAKELQRQRMEASKRGGPSLGGIGSRSGGFSADGIGSSGVSSSSGASSANTGITSIDVDTKSKAAASKPASRNALKLGGKSKDVDSFVDQLKNEGEKIANLAPAAPAGGSSAAASASAAAKAAIASDIHKESVHLKIEDKLVVRLGRDGGVQQFENSGLLTLRITDEAYGRILLKLSPNHTQGLQLQTHPNVDKELFKSRTTIGLKNLGKPFPLNTDVGVLKWRFVSQDESAVPLTINCWPSDNGEGGCDVNIEYELEAQQLELQDVAIVIPLPMNVQPSVAEYDGTYNYDSRKHVLQWHIPIIDAANKSGSMEFSCSASIPGDFFPLQVSFVSKTPYAGVVAQDVVQVDSEAAVKYSSESILFVEKYEIV |
| binds | Mitogen-activated protein kinase kinase (MAPKK) 4 (protein, UniProt O61444 1-424) MAERPKNLFATGSSRSRNPPDQLSLNNLSIRHPPSSTSSTSSGSTSSGSSSSSQHNHVTRCFGAQQPQQTPPVASSQVPPVPAASSSSAADRHRERIRQQACGKLQFGEGGANTHTFTSDDLEDEGEIGRGAFGAVNKMTFKKLDKVMAVKRIRSTVDEKEQKQLLMDLEVVMKSNECIYIVQFYGALFKEGDCWICMELMDTSLDKFYKYIYEKQQRHIPESILAKITVATVNALNYLKEELKIIHRDVKPSNILLHRRGDIKLCDFGISGQLVDSIAKTKDAGCRPYMAPERIDPERAKGYDVRSDVWSLGITLMEVATGNFPYRKWDSVFEQLCQVVQGEPPRLLTSYNGMEFSKEFVDFVNTCLIKKESDRPKYSRLLEMPFIRRGETSHTDVAVYVADILESMEKDGITQFTANQQAES |
| binds | Twins (protein, UniProt P36872 1-499) MGRWGRQSPVLEPPDPQMQTTPPPPTLPPRTFMRQSSITKIGNMLNTAININGAKKPASNGEASWCFSQIKGALDDDVTDADIISCVEFNHDGELLATGDKGGRVVIFQRDPASKAANPRRGEYNVYSTFQSHEPEFDYLKSLEIEEKINKIRWLQQKNPVHFLLSTNDKTVKLWKVSERDKSFGGYNTKEENGLIRDPQNVTALRVPSVKQIPLLVEASPRRTFANAHTYHINSISVNSDQETFLSADDLRINLWHLEVVNQSYNIVDIKPTNMEELTEVITAAEFHPTECNVFVYSSSKGTIRLCDMRSAALCDRHSKQFEEPENPTNRSFFSEIISSISDVKLSNSGRYMISRDYLSIKVWDLHMETKPIETYPVHEYLRAKLCSLYENDCIFDKFECCWNGKDSSIMTGSYNNFFRVFDRNSKKDVTLEASRDIIKPKTVLKPRKVCTGGKRKKDEISVDCLDFNKKILHTAWHPEENIIAVAATNNLFIFQDKF |
| binds | Tektin-A (protein, UniProt Q9V3M9 1-585) MNCLEKKSPEANPECKGRTIELNPGSACPAPLICPLPTEPPSHRLKKPPQPALVALTPHPDEAAQQHLVQNIMGSAQEHQKLQADLQAGVDQQQMQLADMRAEQYKQSNKPLRMEEVQFARSMDPEADDLRNPPCYLPQQGDELPHKDQLMPMGPIGPWASGKVDWSPMAGITGTRPVVDRYSITRYSPNEWRTRNHETVQVVNASLGRADKNRFSSTTEFLRLSALVDKSQKETTDKLRIRSQLIGKWKNTLENAIKAMADEISTMEVERIKLRKSMVVLGVPESIAKECIEKRATRPDTELVRDQVEEELVNELALIAEIRRLLMKTLDDFNSQQVENRTARQRLEYDWSDKKESYEIDTINTGLNNCSRTIMFRPGAVRQPPEQASEKYWEHFSMETLDECEKCRLKSVALRNTLNSTLMNAARDIRTQADVVEKALTSRINCTQEAVQRFENDLKNILQGTADVENRIEQMKRRINSFDSSMKVAQTRMDNRSYRPNVENCRDLAQQELIDGVHTIQSSVSALLHELEEAERVKTDLVNSRARLEREIMLKRRSLFIDRERCMLMRSYYPSANTLSGAATS |
| binds | 14-3-3ζ (protein, UniProt P29310 1-248) MSTVDKEELVQKAKLAEQSERYDDMAQAMKSVTETGVELSNEERNLLSVAYKNVVGARRSSWRVISSIEQKTEASARKQQLAREYRERVEKELREICYEVLGLLDKYLIPKASNPESKVFYLKMKGDYYRYLAEVATGDARNTVVDDSQTAYQDAFDISKGKMQPTHPIRLGLALNFSVFYYEILNSPDKACQLAKQAFDDAIAELDTLNEDSYKDSTLIMQLLRDNLTLWTSDTQGDEAEPQEGGDN |
| binds | Spaghetti Squash (Sqh) (protein, UniProt P40423 1-174) MSSRKTAGRRATTKKRAQRATSNVFAMFDQAQIAEFKEAFNMIDQNRDGFVEKEDLHDMLASLGKNPTDDYLDGMMNEAPGPINFTMFLTLFGERLQGTDPEDVIKNAFGCFDEENMGVLPEDRLRELLTTMGDRFTDEDVDEMYREAPIKNGLFDYLEFTRILKHGAKDKDEQ |
| binds | translationally controlled tumor protein (Tctp) (protein, UniProt Q9VGS2 1-172) MKIYKDIITGDEMFADTYKMKLVDDVIYEVYGKLITRQGDDIKLEGANASAEEADEGTDITSESGVDVVLNHRLTECFAFGDKKSYTLYLKDYMKKVLAKLEEKSPDQVDIFKTNMNKAMKDILGRFKELQFFTGESMDCDGMVALVEYREINGDSVPVLMFFKHGLEEEKC |
| binds | Defective transmitter release (Dtr) (protein, UniProt Q8INT5 1-1483) MSNSNRKEITGLNRMTPKGLKELCKKDKLYQTPRLNDVLYLHYQGFQCIESLEEYTELKCLWLECNAISEIQGLEKLSKLKCLFLQNNLITKIENLDPCRELDTLNLSSNHIRKIQNIGTNVLPVLNTLTISSNYLKDSESLSDLIQCKTLSVLDLSNNRIDDILIVKIFEQMLNLKVLVLQGNPVVSRLPQYRKTLILACKELTYLDSRPVFPRDRACAEAWKRDGYEGERKENNRWNRAERRKTRESINCTIRMRNSHRPPDQQDPLLRSSDSEDDTCAETARKKVALENGCVDDLWEEVSGEQPISEDGTNSSSSLEDNDGTSSQDDLIAEKLSNRRTLEGRPTVLYETEVSNVKSANNDINIFEEGVGKASQIIIEDKPVTKIKLINEPSCMNDKSAMNCTSMGPVVKENDFDEDAEIKNVDDMVPCQNLIKSNEDINSEFGFSSKLKQDFDQTCTALRNDAECKEFDEELTIKESESKPFNEMYDIFAAEDDKLNETLDLNLNETTCPHHVHDNFFSEQNKMPSFYEEDIMINLLPKTKEKTLLEKDSIIENEKCAHDLDEMGRQMEEDLAELRQSTQNLIGISIDETARTDSETDEEDLIAQQDPYSPLLKQQFKDRRMKIMLTEETKAQEESLSDRNIALSNESDQDDKQDQLFAKILDDATENIPKRIFGTGCDALSSVWPQEECLLQLTLPENKESPAQEDTFKKSITNSTSFEKANEICVRMDQKMAEEEEALGKLLHDLEGEINNVYDINTKVKYEENTSTNESDAVSICTSLLDDIIVGLTFDEVLCHEKPKSFEFGLIESDEEFSYSFEPKLEKLVPPALEDPARGKSLRECLDTFSDFVSSMADPKLPVMLGRNPTSGVEKIRAAQELLKTKNLSDLYKDTAESLNSQVAKEIEKRKRRVAASATRCFNQRDKYDDTLELVENRLMIVKKDSGDLEELPPPPPLISDTESEDDNPTEDNYTPGNEVHRHGTKTQDSKEHLMSNLLNQNQDDIIEGKKNDSAEDEFYSLEAMTTFGNLDAEFFQKLDLQKVNASEDSEPAINCMRSYNELQAYMKSGSLNTQLNSEEAEMLQTMCSRVASDVDKPKSQNSKEEEEDDLLKKMVLRMKEYEEREHQLQLISHETSSELGPIKLSIGGSKLFEQNTKIPESVLVHSENEPTRNNKPINTKNTNDKESSDIMEKNGDPSVTTSFKTSHKSIDDDIQSDVSTDYESGEEVVVVEPPTLSEAVLKSFYSDEFEADSKMVHELEEATRRNLRRYNPNIMHISTSNHPFSTNNILPTKTSTSELSEGAKAKWAKIAERLHEFLDPETIANLNKEQFGESDECEDSQDDNITDITVEETNLKKDTKLVVLEEYNNTHTCDGNSCPSKLDDSDQFASLKGFEKIKETPTHNMGLSSVMSASQNKTSETLPNEIGNKITDFSSFKTSSTDLINSEGVKTEQIQCNLQILSDEGDVVVEELSVNAQVSSFK |
| binds | Drosophila LST8 (protein, UniProt Q9W328 1-313) MGDQQQLILATGGYDHTIKVWQAHTGNCIKTMRFVETSQVNALDRTPDKTRLAACGYQCIRLYDLESNCTAPVINFDGVQKNVTRLGFQEDGNWMFTAGEDHHVRIWDMIAAPPHCSRIFDCEAPVNAACLHPNQVEIAMGSQNGSVFLWDVKSERHERIVPEVDASIQDVAISPDGRYLAAANNKGNCYIWSLTSQDQKMSTLRPNRKIPAHSRYILRCKFSPDSRLLLTTSGDGTVCIWKTDDFSKWRELCIENYWVWDAAFSADSKWLFTASSDGIARLWKLQTKSSIRDYTGHTKAITALSFKDEIVGK |
| binds | Rsph4a (protein, UniProt Q9W1D3 1-708) MDRDSCQNFSLDSTSSSHFAPPPVCAPRRKKPEKPAAEEASPECSNVTSSSSSSTTTISIGAFDSQCNLHNARNPEAPNIGYELNVAKSILQKYSTLSGDNLFDHLSDIIKRVIDERPPNVIDFFEEFSRNVREQKFHLPERFPPSGVFDEVRSFRVAKKILQSMKLPYVVEGEDLMGEDLSVEDLRTNEDMRIVIDDSMRYFVTFNERVQQLQFYWTQCGFSISNDDIFQLASAMNRLQTHPSIMQCRFWGCINGLKASYYIVEASLTREEIASRLVMMEEEMRQKQIPFPMRKDREDKPPPAHIGPELTPGIYGWEEFPPEELEKMKPKAAPVPLVEEMELYDIPPEFIGKGCNRYSYFVVNSLFDDWIELPIVTPRQIVVSRQIKKFLTGDLEADVISYPCFPGKEKHYLRTLIGRITAGTYIAPVGYYRRMTKKEQRMFDGEEEEEGEEEEEEEEEEEFNEGEEEQIEDNDVMLLKNEKYEAEPLGSLATPVAWVHVRSNILNQQGRVVWYDEEKARKEREKALALYLKMQMLGEMEEEVEEEEDEEEGEEEGEEEGMIEGFNQPELGPSILSSCANDMNPEVPVSWLARMTSKYTNQKERMLVMQSNVWPGAYTFIFEKTCESIYLGWGHKYYARNIPFKHLPMVQEEFPHNPEDFVEANDPTVEEEEAYKAWLLRKQQKAEYVAEDIEDYDDDEFADQYDDD |
